According to the supplement of paper PMC10849652:
Some of the results follow.

Sequences of proteins named here, by UniProt entry; tags and fusion partners are left off. A change or cut given only in a name is not applied to a line headed by its entry.
UniProt Q9NX38: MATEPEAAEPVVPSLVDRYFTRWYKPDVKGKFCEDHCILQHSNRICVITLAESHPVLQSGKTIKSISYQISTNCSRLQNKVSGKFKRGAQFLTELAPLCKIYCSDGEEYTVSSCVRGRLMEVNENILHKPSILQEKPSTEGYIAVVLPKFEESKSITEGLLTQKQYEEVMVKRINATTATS
UniProt Q9BR61: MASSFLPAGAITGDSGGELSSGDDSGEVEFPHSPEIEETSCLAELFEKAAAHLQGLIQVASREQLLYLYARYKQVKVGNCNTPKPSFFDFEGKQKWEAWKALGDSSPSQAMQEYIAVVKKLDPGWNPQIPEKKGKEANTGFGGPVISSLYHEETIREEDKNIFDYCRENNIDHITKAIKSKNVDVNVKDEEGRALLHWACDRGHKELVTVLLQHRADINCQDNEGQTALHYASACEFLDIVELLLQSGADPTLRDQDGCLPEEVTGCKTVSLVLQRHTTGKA
UniProt Q9UKV3: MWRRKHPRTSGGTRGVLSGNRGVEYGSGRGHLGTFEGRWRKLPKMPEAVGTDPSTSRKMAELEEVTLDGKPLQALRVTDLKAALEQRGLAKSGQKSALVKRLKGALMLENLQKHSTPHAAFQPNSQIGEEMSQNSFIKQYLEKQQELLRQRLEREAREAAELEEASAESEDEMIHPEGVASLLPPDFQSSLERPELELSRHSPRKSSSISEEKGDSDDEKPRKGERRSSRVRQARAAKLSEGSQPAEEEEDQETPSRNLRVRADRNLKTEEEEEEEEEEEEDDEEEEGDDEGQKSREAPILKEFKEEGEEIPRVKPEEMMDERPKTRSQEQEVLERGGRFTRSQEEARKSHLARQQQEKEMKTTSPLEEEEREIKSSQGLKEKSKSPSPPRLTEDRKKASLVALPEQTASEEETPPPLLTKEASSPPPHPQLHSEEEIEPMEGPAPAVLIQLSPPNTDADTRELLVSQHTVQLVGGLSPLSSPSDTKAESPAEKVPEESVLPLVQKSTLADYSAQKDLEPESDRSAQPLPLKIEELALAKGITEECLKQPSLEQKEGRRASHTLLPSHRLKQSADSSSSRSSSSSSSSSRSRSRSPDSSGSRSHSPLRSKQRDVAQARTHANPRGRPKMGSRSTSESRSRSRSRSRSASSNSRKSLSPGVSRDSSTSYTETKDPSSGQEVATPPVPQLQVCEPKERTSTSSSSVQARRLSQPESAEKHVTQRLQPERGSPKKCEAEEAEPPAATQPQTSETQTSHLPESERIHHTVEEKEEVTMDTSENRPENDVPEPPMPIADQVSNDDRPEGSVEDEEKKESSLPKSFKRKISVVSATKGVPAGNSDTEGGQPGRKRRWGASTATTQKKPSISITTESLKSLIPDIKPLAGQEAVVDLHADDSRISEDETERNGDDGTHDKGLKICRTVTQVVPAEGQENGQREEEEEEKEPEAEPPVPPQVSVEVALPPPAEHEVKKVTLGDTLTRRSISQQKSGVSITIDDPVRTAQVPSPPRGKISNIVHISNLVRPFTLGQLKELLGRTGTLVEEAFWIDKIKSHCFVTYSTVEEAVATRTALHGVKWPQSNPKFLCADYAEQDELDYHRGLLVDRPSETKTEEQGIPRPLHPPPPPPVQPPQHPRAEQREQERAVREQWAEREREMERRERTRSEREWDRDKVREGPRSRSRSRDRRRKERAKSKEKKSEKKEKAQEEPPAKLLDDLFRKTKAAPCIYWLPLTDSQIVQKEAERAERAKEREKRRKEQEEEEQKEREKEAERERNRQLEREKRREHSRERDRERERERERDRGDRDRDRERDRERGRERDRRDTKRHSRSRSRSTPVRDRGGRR
UniProt Q9H568: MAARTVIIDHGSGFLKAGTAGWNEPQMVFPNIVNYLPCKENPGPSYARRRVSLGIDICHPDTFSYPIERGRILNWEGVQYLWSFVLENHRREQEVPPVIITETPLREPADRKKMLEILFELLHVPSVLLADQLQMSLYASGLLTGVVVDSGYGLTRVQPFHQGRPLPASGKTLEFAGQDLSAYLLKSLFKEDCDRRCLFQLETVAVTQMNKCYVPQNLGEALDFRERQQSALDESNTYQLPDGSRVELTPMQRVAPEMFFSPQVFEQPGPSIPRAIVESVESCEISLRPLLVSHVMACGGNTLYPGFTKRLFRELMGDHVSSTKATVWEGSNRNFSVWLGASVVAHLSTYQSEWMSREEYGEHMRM
UniProt Q9GZN1, whole entry, looked up: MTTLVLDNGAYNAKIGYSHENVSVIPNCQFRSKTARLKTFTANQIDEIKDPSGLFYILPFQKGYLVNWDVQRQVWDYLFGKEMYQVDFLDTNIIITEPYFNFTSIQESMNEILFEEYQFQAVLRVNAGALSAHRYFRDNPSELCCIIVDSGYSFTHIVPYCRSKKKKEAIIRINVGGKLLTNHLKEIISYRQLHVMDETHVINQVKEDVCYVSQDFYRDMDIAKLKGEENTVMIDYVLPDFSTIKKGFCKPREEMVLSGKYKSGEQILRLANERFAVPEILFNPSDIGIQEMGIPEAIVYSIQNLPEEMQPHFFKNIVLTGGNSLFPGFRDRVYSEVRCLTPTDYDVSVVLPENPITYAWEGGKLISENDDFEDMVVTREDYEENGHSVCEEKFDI
UniProt P28288: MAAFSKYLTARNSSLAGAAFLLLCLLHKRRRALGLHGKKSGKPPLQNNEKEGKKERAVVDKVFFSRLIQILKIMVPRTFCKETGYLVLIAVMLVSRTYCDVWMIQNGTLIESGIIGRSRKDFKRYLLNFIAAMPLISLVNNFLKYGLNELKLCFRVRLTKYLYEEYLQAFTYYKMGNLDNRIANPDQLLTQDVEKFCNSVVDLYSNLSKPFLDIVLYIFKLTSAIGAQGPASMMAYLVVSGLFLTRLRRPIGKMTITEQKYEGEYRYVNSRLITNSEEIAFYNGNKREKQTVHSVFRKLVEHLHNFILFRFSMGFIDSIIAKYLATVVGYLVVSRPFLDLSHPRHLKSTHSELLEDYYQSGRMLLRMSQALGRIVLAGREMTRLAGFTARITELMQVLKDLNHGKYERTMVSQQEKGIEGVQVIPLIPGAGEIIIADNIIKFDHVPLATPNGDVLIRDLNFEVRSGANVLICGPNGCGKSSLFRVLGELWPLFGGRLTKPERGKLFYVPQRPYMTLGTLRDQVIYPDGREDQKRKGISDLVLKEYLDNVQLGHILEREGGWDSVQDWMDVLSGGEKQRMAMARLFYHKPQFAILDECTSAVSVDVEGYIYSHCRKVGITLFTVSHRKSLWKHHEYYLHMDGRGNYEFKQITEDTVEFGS
UniProt Q7L211: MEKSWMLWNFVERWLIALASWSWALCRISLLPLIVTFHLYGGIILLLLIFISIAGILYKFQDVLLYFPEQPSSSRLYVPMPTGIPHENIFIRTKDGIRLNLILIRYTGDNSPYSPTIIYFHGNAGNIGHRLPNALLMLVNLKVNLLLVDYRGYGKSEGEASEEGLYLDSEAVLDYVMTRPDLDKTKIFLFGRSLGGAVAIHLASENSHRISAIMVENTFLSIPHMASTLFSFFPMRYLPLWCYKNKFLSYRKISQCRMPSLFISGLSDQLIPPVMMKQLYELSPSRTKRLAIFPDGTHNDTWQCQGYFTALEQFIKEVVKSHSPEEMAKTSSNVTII
UniProt Q6DHV7: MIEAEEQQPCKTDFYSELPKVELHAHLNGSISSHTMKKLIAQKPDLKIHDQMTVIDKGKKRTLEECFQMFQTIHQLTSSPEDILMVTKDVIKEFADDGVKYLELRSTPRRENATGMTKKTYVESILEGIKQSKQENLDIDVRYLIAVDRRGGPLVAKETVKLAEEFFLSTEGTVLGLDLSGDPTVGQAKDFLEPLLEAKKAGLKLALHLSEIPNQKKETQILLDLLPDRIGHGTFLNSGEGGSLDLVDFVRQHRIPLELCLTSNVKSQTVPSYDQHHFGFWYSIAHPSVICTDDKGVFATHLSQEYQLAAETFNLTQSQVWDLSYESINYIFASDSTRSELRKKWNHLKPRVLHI
UniProt Q6UWZ7: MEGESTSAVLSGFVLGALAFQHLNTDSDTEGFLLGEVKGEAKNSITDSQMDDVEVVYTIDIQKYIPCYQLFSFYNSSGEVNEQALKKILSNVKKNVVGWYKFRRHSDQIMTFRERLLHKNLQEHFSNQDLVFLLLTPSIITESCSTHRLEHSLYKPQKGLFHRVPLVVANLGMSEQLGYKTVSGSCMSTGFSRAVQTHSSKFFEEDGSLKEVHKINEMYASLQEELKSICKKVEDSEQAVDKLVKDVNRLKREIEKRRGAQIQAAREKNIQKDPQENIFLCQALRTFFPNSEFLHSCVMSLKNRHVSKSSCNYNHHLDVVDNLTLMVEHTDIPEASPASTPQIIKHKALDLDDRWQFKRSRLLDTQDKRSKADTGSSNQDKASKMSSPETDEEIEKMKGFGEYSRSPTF
UniProt Q9NUQ8: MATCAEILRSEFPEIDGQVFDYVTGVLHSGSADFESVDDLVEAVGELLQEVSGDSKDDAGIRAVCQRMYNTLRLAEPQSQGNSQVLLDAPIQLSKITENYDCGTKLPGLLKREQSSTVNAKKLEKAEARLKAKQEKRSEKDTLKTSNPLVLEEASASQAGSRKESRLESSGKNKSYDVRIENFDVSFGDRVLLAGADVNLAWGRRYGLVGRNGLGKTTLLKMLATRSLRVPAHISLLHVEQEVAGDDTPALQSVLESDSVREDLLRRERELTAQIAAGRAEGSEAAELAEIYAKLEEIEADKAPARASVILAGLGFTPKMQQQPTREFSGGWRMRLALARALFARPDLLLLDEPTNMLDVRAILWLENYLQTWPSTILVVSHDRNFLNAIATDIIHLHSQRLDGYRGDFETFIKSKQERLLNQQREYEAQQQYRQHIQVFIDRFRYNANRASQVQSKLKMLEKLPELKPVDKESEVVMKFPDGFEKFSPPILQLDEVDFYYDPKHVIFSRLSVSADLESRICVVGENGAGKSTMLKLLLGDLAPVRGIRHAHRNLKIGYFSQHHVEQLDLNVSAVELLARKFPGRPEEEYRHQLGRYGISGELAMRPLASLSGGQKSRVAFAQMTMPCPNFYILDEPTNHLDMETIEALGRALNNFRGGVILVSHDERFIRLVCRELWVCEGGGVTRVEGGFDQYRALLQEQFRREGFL
UniProt O75027: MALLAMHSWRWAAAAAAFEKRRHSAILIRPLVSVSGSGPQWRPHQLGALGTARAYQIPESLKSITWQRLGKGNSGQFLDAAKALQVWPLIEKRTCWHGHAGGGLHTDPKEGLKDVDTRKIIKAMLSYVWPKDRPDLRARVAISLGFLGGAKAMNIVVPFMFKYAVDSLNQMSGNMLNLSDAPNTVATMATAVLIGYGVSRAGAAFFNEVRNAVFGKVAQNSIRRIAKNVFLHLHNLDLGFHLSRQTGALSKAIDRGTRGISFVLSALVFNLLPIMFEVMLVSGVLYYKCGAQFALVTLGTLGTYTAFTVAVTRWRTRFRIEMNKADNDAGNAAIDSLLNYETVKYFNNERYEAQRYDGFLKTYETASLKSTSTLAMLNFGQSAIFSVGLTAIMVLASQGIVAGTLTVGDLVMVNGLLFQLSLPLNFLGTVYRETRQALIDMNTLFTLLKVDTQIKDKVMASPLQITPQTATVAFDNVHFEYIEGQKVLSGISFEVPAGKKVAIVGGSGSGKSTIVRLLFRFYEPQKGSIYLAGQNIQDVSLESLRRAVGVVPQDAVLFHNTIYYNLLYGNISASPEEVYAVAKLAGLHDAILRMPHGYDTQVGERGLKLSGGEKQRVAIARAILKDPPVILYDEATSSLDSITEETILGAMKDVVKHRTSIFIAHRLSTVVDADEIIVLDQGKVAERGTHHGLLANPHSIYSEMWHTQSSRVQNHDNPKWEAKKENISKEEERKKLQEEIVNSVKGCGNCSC
UniProt Q9NPJ3: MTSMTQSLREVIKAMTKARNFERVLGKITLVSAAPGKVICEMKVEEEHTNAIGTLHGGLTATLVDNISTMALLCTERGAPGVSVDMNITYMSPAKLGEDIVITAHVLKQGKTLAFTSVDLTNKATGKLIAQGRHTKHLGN
UniProt Q9UG63: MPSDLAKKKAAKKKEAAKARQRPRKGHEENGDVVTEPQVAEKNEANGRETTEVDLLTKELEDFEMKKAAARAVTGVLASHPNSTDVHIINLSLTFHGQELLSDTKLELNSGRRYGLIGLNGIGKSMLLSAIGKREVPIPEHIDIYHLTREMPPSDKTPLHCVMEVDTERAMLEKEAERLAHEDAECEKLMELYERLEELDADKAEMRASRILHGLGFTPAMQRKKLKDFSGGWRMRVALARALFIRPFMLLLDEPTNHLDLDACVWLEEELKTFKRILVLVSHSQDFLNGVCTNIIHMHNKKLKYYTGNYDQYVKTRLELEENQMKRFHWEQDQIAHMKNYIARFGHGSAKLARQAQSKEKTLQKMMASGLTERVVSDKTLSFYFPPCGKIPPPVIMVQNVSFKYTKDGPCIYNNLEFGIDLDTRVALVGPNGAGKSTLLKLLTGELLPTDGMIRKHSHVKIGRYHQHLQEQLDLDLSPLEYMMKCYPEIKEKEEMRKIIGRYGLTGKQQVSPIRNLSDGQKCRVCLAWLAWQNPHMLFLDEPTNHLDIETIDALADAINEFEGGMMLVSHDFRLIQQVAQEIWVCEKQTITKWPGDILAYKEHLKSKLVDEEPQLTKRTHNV

Assays:
Test in all cases: log2 fold change, soluble protein after heating vs DMSO (PISA); higher = thermal stabilisation; K562 cells, 10 uM, 30 min; active = over 0.2 and 3.5 SD of the protein, either way, in both replicates (recomputed)
[1] = compound: NC(=O)Nc1cc(-c2cccc(F)c2)sc1C(=O)N[C@H]1CCCNC1
In short: (§1)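 Soluble protein was quantified by TMTpro 16plex LC-MS/MS after channel sums were equalised. It was obtained as the supernatant after 21,000xg for 90 min from pooled aliquots of K562 cells (2×10^6 cells/mL, 10 μM compound, 30 min) heated for 3 min across 48°C-58°C and extracted in PBS with 0.5% NP-40 at 4°C. Thermal stability values are relative to control samples and come from duplicates. They are given as log2 fold changes.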

[2] = compound: NC(=O)c1cnc(N[C@@H]2CCCC[C@@H]2N)nc1Nc1cccc(-n2nccn2)c1
In short: as §1

[3] = compound: NC1(c2ccc(-c3nc4ccn5c(=O)[nH]nc5c4cc3-c3ccccc3)cc2)CCC1
In short: as §1

[4] = compound: NCC(=O)Nc1ccc(-n2nc(C(F)(F)F)cc2-c2ccc3c(ccc4ccccc43)c2)cc1
In short: as §1

[5] = compound: Nc1ccccc1NC(=O)c1ccc(CNC(=O)OCc2cccnc2)cc1 [entinostat]
In short: as §1

[6] = compound: O=C(CCCCCCC(=O)Nc1ccccc1)NO [vorinostat]
In short: as §1

[7] = compound: O=C(CCCCCCNC(=O)c1cnc(N(c2ccccc2)c2ccccc2Cl)nc1)NO [citarinostat]
In short: as §1

[8] = compound: O=C(O)c1ccc2c(c1)nc(Nc1cccc(Cl)c1)c1ccncc12 [silmitasertib]
In short: as §1

[9] = compound: O=C1NC(=O)C(c2cnc3ccccn23)=C1c1cn2c3c(cc(F)cc13)CN(C(=O)N1CCCCC1)CC2
In short: as §1

[10] = compound: c1cc(OCCN2CCCCC2)cc(-c2n[nH]c3ccc(-c4nnc[nH]4)cc23)c1
In short: as §1

[11] = compound: c1cn2cc(-c3ccc4cn[nH]c4c3)nc(Nc3ccc(N4CCOCC4)cc3)c2n1 [entospletinib]
In short: as §1

Measured: log2 fold change

ACSM3 (UniProt Q53FZ2)
inactive: [1] 0.017 | [2] 0 | [3] 0.021 | [4] -0.125 | [5] 0.009 | [6] 0.122 | [7] 0.122 | [8] 0.06 | [9] -0.134 | [10] -0.094

ABITRAM (UniProt Q9NX38)
inactive: [1] -0.018 | [2] -0.12 | [3] -0.194 | [4] 0.008 | [5] 0.008 | [6] -0.089 | [7] 0.046 | [8] 0.094 | [9] -0.015 | [10] -0.006

ACBD6 (UniProt Q9BR61)
inactive: [1] -0.089 | [2] -0.077 | [3] -0.006 | [4] 0.001 | [5] -0.048 | [6] 0.086 | [7] 0.084 | [8] 0.134 | [9] 0.022 | [10] 0.271

ACADVL isoform 3 (UniProt P49748)
inactive: [1] -0.025 | [2] -0.036 | [3] -0.021 | [4] -0.032 | [5] 0 | [6] -0.019 | [7] 0.043 | [8] -0.015 | [9] -0.014 | [10] -0.028

AAK1 (UniProt Q2M2I8)
inactive: [1] 0.28 | [2] 0.055 | [3] -0.027 | [4] 0.045 | [5] -0.015 | [6] 0.074 | [7] -0.015 | [8] 0.153 | [9] 0.238 | [10] 0.052

ACIN1 (UniProt Q9UKV3)
inactive: [1] -0.013 | [2] -0.038 | [3] 0.003 | [4] -0.062 | [5] -0.024 | [6] 0.035 | [7] 0.035 | [8] -0.124 | [9] 0.013 | [10] -0.084

ACP2 (UniProt P11117)
inactive: [1] -0.014 | [2] 0.002 | [3] -0.124 | [4] 0.018 | [5] -0.01 | [6] -0.003 | [7] 0.05 | [8] 0.069 | [9] -0.052 | [10] -0.102

ABCC5 (UniProt O15440)
inactive: [1] 0.016 | [2] 0.088 | [3] -0.038 | [4] -0.005 | [5] -0.017 | [6] 0.001 | [7] 0.114 | [8] 0.008 | [9] -0.082 | [10] 0.12

ACTL8 (UniProt Q9H568)
inactive: [1] -0.024 | [2] -0.049 | [3] 0.025 | [4] 0.145 | [5] 0.012 | [6] 0.077 | [7] -0.041 | [8] 0.011 | [9] 0.152 | [10] -0.062 | [11] -0.063

ACLY (UniProt P53396)
inactive: [1] -0.016 | [2] -0.014 | [3] -0.06 | [4] -0.008 | [5] 0 | [6] -0.001 | [7] 0.03 | [8] 0.01 | [9] -0.023 | [10] -0.044 | [11] -0.066

ABCE1 (UniProt H0Y990)
inactive: [1] 0.175 | [2] -0.312 | [3] -0.062 | [4] -0.265 | [5] -0.022 | [6] -0.055 | [7] -0.012 | [8] 0.002 | [9] -0.001 | [10] -0.036 | [11] -0.173

ACTR6 (UniProt Q9GZN1)
inactive: [1] 0.031 | [2] -0.059 | [3] -0.043 | [4] 0.009 | [5] 0.035 | [6] -0.063 | [7] 0.002 | [8] 0.142 | [9] -0.019 | [10] -0.029 | [11] -0.035

ABCD3 (UniProt P28288)
inactive: [1] -0.016 | [2] -0.025 | [3] -0.068 | [4] -0.011 | [5] -0.045 | [6] 0.007 | [7] -0.001 | [8] 0.006 | [9] -0.01 | [10] -0.048 | [11] -0.023

ABHD13 (UniProt Q7L211)
inactive: [1] -0.141 | [2] -0.036 | [3] -0.027 | [4] 0 | [5] 0.114 | [6] -0.05 | [7] 0.047 | [8] -0.031 | [9] -0.044 | [10] 0.037 | [11] -0.052

ACOT9 isoform 4 (UniProt Q9Y305)
inactive: [1] 0.001 | [2] -0.016 | [3] 0.14 | [4] 0.065 | [5] -0.021 | [6] -0.018 | [7] -0.034 | [8] -0.093 | [9] 0.124 | [10] -0.048 | [11] 0.02

ADAL (UniProt Q6DHV7)
inactive: [1] 0.076 | [2] 0 | [3] -0.011 | [4] 0.007 | [5] 0.011 | [6] -0.045 | [7] 0.055 | [8] -0.034 | [9] -0.037 | [10] 0 | [11] 0.002

ABRAXAS1 (UniProt Q6UWZ7)
inactive: [1] 0.173 | [2] 0.203 | [3] 0.157 | [4] 0.115 | [5] -0.135 | [6] -0.092 | [7] -0.112 | [8] 0.05 | [9] 0.016 | [10] -0.186 | [11] 0.077

Quoted at random: two entries already listed.
ACTR6 (UniProt Q9GZN1)
inactive: [1] 0.031 | [2] -0.059 | [3] -0.043 | [4] 0.009 | [5] 0.035 | [6] -0.063 | [7] 0.002 | [8] 0.142 | [9] -0.019 | [10] -0.029 | [11] -0.035

ABITRAM (UniProt Q9NX38)
inactive: [1] -0.018 | [2] -0.12 | [3] -0.194 | [4] 0.008 | [5] 0.008 | [6] -0.089 | [7] 0.046 | [8] 0.094 | [9] -0.015 | [10] -0.006

(list continues)

ACBD3 (UniProt Q9H3P7)
inactive: [1] -0.017 | [2] 0.066 | [3] -0.016 | [4] 0.006 | [5] -0.046 | [6] 0.007 | [7] -0.009 | [8] -0.039 | [9] -0.046 | [10] 0.005 | [11] 0.027

ABCF3 (UniProt Q9NUQ8)
inactive: [1] -0.027 | [2] -0.055 | [3] 0.187 | [4] 0.054 | [5] 0.083 | [6] -0.16 | [7] -0.071 | [8] 0.232 | [9] 0.3 | [10] 0.125 | [11] 0.101

ACTR3 (UniProt P61158)
inactive: [1] 0.008 | [2] 0.014 | [3] -0.041 | [4] -0.001 | [5] -0.045 | [6] -0.006 | [7] 0.009 | [8] 0.018 | [9] -0.023 | [10] -0.025 | [11] -0.023

ABCB7 isoform 2 (UniProt O75027)
inactive: [1] 0.011 | [2] -0.027 | [3] -0.099 | [4] -0.064 | [5] 0.016 | [6] 0.059 | [7] 0.039 | [8] -0.02 | [9] -0.027 | [10] -0.008 | [11] -0.089

ACTR2 (UniProt P61160)
inactive: [1] -0.003 | [2] -0.02 | [3] -0.004 | [4] -0.022 | [5] -0.027 | [6] -0.003 | [7] -0.003 | [8] 0.01 | [9] -0.044 | [10] 0.004 | [11] -0.003

ABL1 isoform 2 (UniProt P00519)
inactive: [1] 0.004 | [2] 0.092 | [3] 0.139 | [4] 0.023 | [5] 0.013 | [6] -0.005 | [7] 0.026 | [8] 0.11 | [9] 0.127 | [10] -0.064 | [11] 0.002

ACOT13 (UniProt Q9NPJ3)
inactive: [1] 0.035 | [2] -0.019 | [3] 0.015 | [4] -0.023 | [5] 0.006 | [6] 0.064 | [7] 0.032 | [8] -0.023 | [9] 0.096 | [10] -0.016 | [11] 0.042

ADAT3 (UniProt Q96EY9)
inactive: [1] -0.134 | [2] -0.049 | [3] 0.039 | [4] -0.096 | [5] -0.038 | [6] 0.082 | [7] 0.073 | [8] -0.136 | [9] -0.03 | [10] -0.024 | [11] -0.004

ABI2 (UniProt Q9NYB9)
inactive: [1] -0.094 | [2] -0.064 | [3] -0.112 | [4] -0.124 | [5] 0.035 | [6] 0.07 | [7] -0.014 | [8] -0.028 | [9] -0.077 | [10] -0.051 | [11] 0.007

ABCF2 isoform 2 (UniProt Q9UG63)
inactive: [1] -0.003 | [2] -0.049 | [3] -0.063 | [4] -0.03 | [5] -0.026 | [6] 0.016 | [7] -0.018 | [8] -0.006 | [9] 0.013 | [10] -0.02 | [11] 0.062

ACOX1 isoform 2 (UniProt Q15067)
inactive: [1] 0.003 | [2] -0.037 | [3] -0.001 | [4] 0.004 | [5] 0.004 | [6] -0.035 | [7] 0.03 | [8] -0.005 | [9] 0.092 | [10] -0.046 | [11] -0.04
